Experimental data from PubChem BioAssay AID192 (DTP/NCI, 2004).
The list does not hold the whole screen: it is rich in T/C values a quarter to a half above the control, in often repeated tests (any T/C) and in doses without a T/C. Other doses and runs of a compound stand elsewhere. T/C: endpoint of the treated group in % of that of the vehicle group. Some doses have a count of surviving animals in place of a T/C: the source holds a T/C of zero for them, seemingly a mark for toxic or unscored doses. Some doses without a T/C left all or most animals alive at the check, yet need not have been tolerated: the source hardly ever lists a survival T/C far under the control, and the zero likely stands for such cases as well. Counts of survivors are from the toxicity check (mostly the fifth day) where no day follows; animals may have died later. Schedules are NCI's codes, taken here to give the interval after Q, in days (D) or hours (H), and the number of doses after X. Where survival is the endpoint, this PubChem deposit counts one and a half times the control or more as active, and values a quarter to a half above the control carry no call in these data; other NCI protocols may use other cut-offs. Some entries hold several experiments; the values are given in rising order. Some T/C values are followed by the survivors on the day toxicity was checked, most often the fifth; where none is given, no animal had died by that day.

Tested on: BDF1 mice, B16 melanoma ip, median survival T/C
Test: NCI In Vivo Anticancer Drug Screen. Data for tumor model B16 Melanoma (intraperitoneal) in B6D2F1 (BDF1) mice
Details: T/C endpoint: median survival time, higher T/C = longer survival
Summary of the method: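 Compounds were tested in mice carrying transplantable tumors. Survival or tumor size was recorded, and each value is the treated-group measurement (T) divided by that of the vehicle-treated control group (C).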

[1] = dose: 100.0 mg/kg/injection, schedule: Q01DX009 (ip), vehicle: Klucel (hydroxypropylcellulose) (HPC)
[2] = dose: 200.0 mg/kg/injection, schedule: Q01DX009 (ip), vehicle: Klucel (hydroxypropylcellulose) (HPC)
[3] = dose: 400.0 mg/kg/injection, schedule: Q01DX009 (ip), vehicle: Klucel (hydroxypropylcellulose) (HPC)
[4] = dose: 1.0 mg/kg/injection, schedule: Q01DX009 (ip), vehicle: saline
[5] = dose: 2.0 mg/kg/injection, schedule: Q01DX009 (ip), vehicle: saline
[6] = dose: 50.0 mg/kg/injection, schedule: Q01DX009 (ip), vehicle: saline
[7] = dose: 100.0 mg/kg/injection, schedule: Q01DX009 (ip), vehicle: saline
[8] = dose: 200.0 mg/kg/injection, schedule: Q01DX009 (ip), vehicle: saline
[9] = dose: 200.0 mg/kg/injection, schedule: Q01DX009 (ip), vehicle: saline with Tween-80
[10] = dose: 25.0 mg/kg/injection, schedule: Q01DX009 (ip), vehicle: saline with Tween-80

## CCCCn1cnc2c(N)ncnc21
dose: 25.0 mg/kg/injection, schedule: Q01DX009 (ip), vehicle: Klucel (hydroxypropylcellulose) (HPC)
  survivor count: 6 of 6
[1]
  survivor count: 5 of 6

## O=C(Nc1cccc(C(F)(F)F)c1)C(c1ccccc1)c1ccccc1
[1]
  survivor count: 10 of 10
[2]
  survivor count: 10 of 10
[3]
  survivor count: 10 of 10

## COc1ccc2nc3cc(Cl)ccc3c(NC(C)CCCN(CCCl)CCCl)c2c1 (configuration not stated)
[4]
  survivor count: 10 of 10
[5]
  survivor count: 6 of 10
dose: 2.5 mg/kg/injection, schedule: Q04DX003 (ip), vehicle: saline with Tween-80
  survivor count: 10 of 10
dose: 5.0 mg/kg/injection, schedule: Q04DX003 (ip), vehicle: saline with Tween-80
  survivor count: 10 of 10

## CCC/C(=C\C(=O)O)CC
dose: 400.0 mg/kg/injection, schedule: Q04DX003 (ip), vehicle: Klucel (hydroxypropylcellulose) (HPC)
  survivor count: 10 of 10

## Cc1cccc(C(N)=S)n1
[2]
  survivor count: 6 of 10

## CC(C)C(NC(=O)OC(C)(C)C)C(=O)O (configuration not stated)
[1]
  survivor count: 10 of 10

## CCCCOC(=O)C(C)OC(=O)CCC (configuration not stated)
[1]
  T/C: 143 % of control
[3]
  T/C: 132 % of control

## [Cl][Ge]([Cl])([c]1ccccc1)[c]1ccccc1
[1]
  survivor count: 6 of 10

## CC(C)C(C(=O)c1ccccc1)C(c1ccccc1)c1ccccc1 (configuration not stated)
dose: 400.0 mg/kg/injection, schedule: Q04DX003 (ip), vehicle: other
  survivor count: 6 of 10

## O=Cc1ccc(C=O)c(Cl)c1
dose: 800.0 mg/kg/injection, schedule: Q01DX009 (ip), vehicle: Klucel (hydroxypropylcellulose) (HPC)
  survivor count: 0 of 10

## CCCCNC(=O)Nc1ccc(C)c(Cl)c1
dose: 70.0 mg/kg/injection, schedule: Q01DX009 (ip), vehicle: Klucel (hydroxypropylcellulose) (HPC)
  survivor count: 10 of 10
dose: 140.0 mg/kg/injection, schedule: Q01DX009 (ip), vehicle: Klucel (hydroxypropylcellulose) (HPC)
  survivor count: 10 of 10
dose: 280.0 mg/kg/injection, schedule: Q01DX009 (ip), vehicle: Klucel (hydroxypropylcellulose) (HPC)
  survivor count: 10 of 10

## CN1CN(C)CN(C)C1
[6]
  T/C: 125 % of control
[7]
  survivor count: 10 of 10

## Nc1ccc2nc3ccc(N)cc3[n+](-c3ccccc3)c2c1
dose: 80.0 mg/kg/injection, schedule: Q04DX003 (ip), vehicle: saline with Tween-80
  survivor count: 0 of 10

## OCCNCCNc1ccnc2cc(Cl)ccc12
[8]
  survivor count: 7 of 10

## C[C@]12CCC(=O)C=C1CC[C@@H]1[C@@H]2[C@@H](O)C[C@@]2(C)[C@H]1CC[C@]2(O)C(=O)CO
dose: 320.0 mg/kg/injection, schedule: Q02DX009 (ip), vehicle: Klucel (hydroxypropylcellulose) (HPC)
  survivor count: 10 of 10
dose: 640.0 mg/kg/injection, schedule: Q02DX009 (ip), vehicle: Klucel (hydroxypropylcellulose) (HPC)
  survivor count: 9 of 10

## CCC1CC2CN(CCc3c([nH]c4ccccc34)C(C(=O)OC)(c3cc4c(cc3OC)N(C)C3C(O)(C(=O)OC)C(OC(C)=O)C5(CC)C=CCN6CCC43C65)C2)C1 (configuration not stated)
dose: 0.1 mg/kg/injection, schedule: Q01DX009 (ip), vehicle: Klucel (hydroxypropylcellulose) (HPC)
  T/C: 133 % of control
dose: 0.2 mg/kg/injection, schedule: Q01DX009 (ip), vehicle: Klucel (hydroxypropylcellulose) (HPC)
  T/C: 143 % of control
dose: 0.25 mg/kg/injection, schedule: Q01DX009 (ip), vehicle: water, evaluated on day 45
  T/C: 130 % of control
dose: 0.25 mg/kg/injection, schedule: Q01DX009 (ip), vehicle: water, evaluated on day 60
  T/C: 130 % of control
dose: 0.25 mg/kg/injection, schedule: Q04DX003 (ip), vehicle: water
  T/C: 143 % of control
dose: 0.5 mg/kg/injection, schedule: Q01DX009 (ip), vehicle: water, evaluated on day 45
  T/C: 131 % of control
dose: 0.5 mg/kg/injection, schedule: Q01DX009 (ip), vehicle: water, evaluated on day 60
  T/C: 136 % of control
dose: 2.0 mg/kg/injection, schedule: Q01DX009 (ip), vehicle: water
  survivor count: 10 of 10
dose: 3.2 mg/kg/injection, schedule: Q01DX009 (ip), vehicle: Klucel (hydroxypropylcellulose) (HPC)
  survivor count: 6 of 6
dose: 4.0 mg/kg/injection, schedule: Q01DX009 (ip), vehicle: water
  survivor count: 9 of 10
dose: 4.0 mg/kg/injection, schedule: Q04DX003 (ip), vehicle: water
  survivor count: 10 of 10
dose: 6.4 mg/kg/injection, schedule: Q01DX009 (ip), vehicle: Klucel (hydroxypropylcellulose) (HPC)
  survivor count: 6 of 6
dose: 12.8 mg/kg/injection, schedule: Q01DX009 (ip), vehicle: Klucel (hydroxypropylcellulose) (HPC)
  survivor count: 2 of 6

## O=NN(CCBr)C(=O)NCCBr
dose: 100.0 mg/kg/injection, schedule: Q01DX009 (ip), vehicle: gum acacia
  T/C: 127 % of control
dose: 150.0 mg/kg/injection, schedule: Q01DX009 (ip), vehicle: gum acacia
  T/C: 135 % of control
dose: 200.0 mg/kg/injection, schedule: Q01DX009 (ip), vehicle: gum acacia
  survivor count: 10 of 10

## Cc1ccc(S(=O)(=O)Cl)cc1Cl
[9]
  survivor count: 10 of 10

## O=[N+]([O-])c1cccnc1Oc1cccc(C(F)(F)F)c1
dose: 300.0 mg/kg/injection, schedule: Q04DX003 (ip), vehicle: Klucel (hydroxypropylcellulose) (HPC)
  survivor count: 9 of 10

## CCCC1CC[N-]CC1.CCCC1CC[N-]CC1.[Br][Pt+2]([Br])([Br])[Br]
dose: 25.0 mg/kg/injection, schedule: Q01DX009 (ip), vehicle: water
  survivor count: 10 of 10
dose: 50.0 mg/kg/injection, schedule: Q01DX009 (ip), vehicle: water
  survivor count: 9 of 10

## Cc1cc2[nH]c(=O)[nH]c2cc1C
[9]
  survivor count: 10 of 10

## CN1CCC=C(C(=O)N2c3ccccc3Sc3ccc(Cl)cc32)C1
dose: 25.0 mg/kg/injection, schedule: Q01DX009 (ip), vehicle: saline
  survivor count: 8 of 10

## NC(=S)N/N=C\c1nccc2c(N)cccc12
dose: 3.13 mg/kg/injection, schedule: Q01DX009 (ip), vehicle: saline
  T/C: 140 % of control [9 of 10 alive]
dose: 6.25 mg/kg/injection, schedule: Q01DX009 (ip), vehicle: saline with Tween-80
  T/C: 129 % of control
dose: 9.4 mg/kg/injection, schedule: Q04DX003 (ip), vehicle: saline
  T/C: 133 % of control [9 of 10 alive]
dose: 12.5 mg/kg/injection, schedule: Q01DX009 (ip), vehicle: saline with Tween-80, evaluated on day 45
  T/C: 139 % of control
dose: 12.5 mg/kg/injection, schedule: Q01DX009 (ip), vehicle: saline with Tween-80, evaluated on day 60
  T/C: 130 % of control
[10]
  T/C: 140 and 146 % of control
dose: 50.0 mg/kg/injection, schedule: Q01DX009 (ip), vehicle: saline with Tween-80
  T/C: 141 % of control

## C1=Cc2ccccc2/C1=C/c1cccc(/C=C2\C=Cc3ccccc32)c1
[10]
  survivor count: 10 of 10

## CNCCCC1c2ccccc2C=Cc2ccccc21
[6]
  survivor count: 5 of 10
[7]
  survivor count: 0 of 10
[8]
  survivor count: 0 of 10
dose: 400.0 mg/kg/injection, schedule: Q01DX009 (ip), vehicle: saline
  survivor count: 0 of 10

## C=C(OC)C(Nc1cc(OC)c(OC)cc1C(=O)OC1CC(O[C@@H]2C(=O)C(NC(=O)OC)=C3/C(=C\CSSSC)[C@]2(O)C#C/C=C\C#C[C@@H]3OC2OC(C)C(NOC3CC(O)C(SC)C(C)O3)C(O)C2OC2CC(OC)C(NCCC)CO2)OC(C)C1O)OC (some centres not stated)
dose: 0.8 micrograms/kg/injection, schedule: Q04DX003 (ip), vehicle: methylcellulose (MC)
  T/C: 148 % of control

## OCCN1CCN(CC/C=C2\c3ccccc3Sc3ccc(Cl)cc32)CC1
[4]
  T/C: 127 % of control
[5]
  T/C: 128 % of control
dose: 4.0 mg/kg/injection, schedule: Q01DX009 (ip), vehicle: saline
  T/C: 128 % of control
dose: 8.0 mg/kg/injection, schedule: Q01DX009 (ip), vehicle: saline
  survivor count: 9 of 10
dose: 16.0 mg/kg/injection, schedule: Q01DX009 (ip), vehicle: saline
  survivor count: 10 of 10

## Cc1ccc(NC(=O)c2ccccc2Cl)cc1
dose: 400.0 mg/kg/injection, schedule: Q01DX009 (ip), vehicle: saline with Tween-80
  survivor count: 6 of 10
